Source: PubChem BioAssay AID1224830 (NIAID, 2016)
Aim: 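Regulators of TLR4 signalling towards TNF-alpha in macrophage-like cells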 (primary screen). Cell system: human THP-1 monocytic leukaemia cells, TNF dual-luciferase reporter clone, PMA-differentiated to macrophage-like cells. Reagent: siRNA pool against human genes, 50 nM. Timing: LPS for 4 h, given about 3 days after siRNA transfection. Treatment: bacterial LPS (TLR4 ligand), 10 ng/ml. Measurement: 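Ratio of firefly to renilla light, scaled to the plate median and expressed as a robust z-score per replicate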. Reading the numbers: TNF reporter robust z-score: higher = stronger TNF reporter response to LPS. Active means: 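Each well counts as active if its z-score is over 2.8 or under -1.5; controls are left without a call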.
The whole screen tested about 18,000 reagents; this is a part drawn at random. About 2,900 of all reagents (16%) count as active. 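Calls are made per well; low scores hint the gene aids the LPS response, high scores that it dampens it.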 Entries without a mark were called inactive. Repeated entries: four replicate wells of each siRNA pool.

The first 5 entries, to show the layout:
target | TNF reporter robust z-score
DUSP19 (dual specificity phosphatase 19) | 0.54
DUSP19 (dual specificity phosphatase 19) | 0.24
DUSP19 (dual specificity phosphatase 19) | 1.28
DUSP19 (dual specificity phosphatase 19) | 0.59
EMG1 (EMG1 N1-specific pseudouridine methyltransferase) | 1.15

Results, repeating the preview:
target | TNF reporter robust z-score
DUSP19 (dual specificity phosphatase 19) | 0.54
DUSP19 (dual specificity phosphatase 19) | 0.24
DUSP19 (dual specificity phosphatase 19) | 1.28
DUSP19 (dual specificity phosphatase 19) | 0.59
EMG1 (EMG1 N1-specific pseudouridine methyltransferase) | 1.15
EMG1 (EMG1 N1-specific pseudouridine methyltransferase) | 0.26
EMG1 (EMG1 N1-specific pseudouridine methyltransferase) | 0.97
EMG1 (EMG1 N1-specific pseudouridine methyltransferase) | 1.11
ZC3H18-DT (ZC3H18 divergent transcript) | -0.73
ZC3H18-DT (ZC3H18 divergent transcript) | -0.32
ZC3H18-DT (ZC3H18 divergent transcript) | -1.1
PLAGL1 (PLAG1 like zinc finger 1) | -0.57
PLAGL1 (PLAG1 like zinc finger 1) | -0.18
PLAGL1 (PLAG1 like zinc finger 1) | -0.05
PLAGL1 (PLAG1 like zinc finger 1) | 1.88
SDCBP2 (syndecan binding protein 2) | -0.74
SDCBP2 (syndecan binding protein 2) | 0.29
SDCBP2 (syndecan binding protein 2) | -0.14
SDCBP2 (syndecan binding protein 2) | 0.31
MAX (MYC associated transcriptional regulator X) | -0.96
MAX (MYC associated transcriptional regulator X) | -1.28
MAX (MYC associated transcriptional regulator X) | -1.43
MAX (MYC associated transcriptional regulator X) | -0.15
KCNRG (potassium channel regulator) | -0.25
KCNRG (potassium channel regulator) | 1.72
KCNRG (potassium channel regulator) | -0.31
KCNRG (potassium channel regulator) | 1.35
FAM135B (family with sequence similarity 135 member B) | -1.08
FAM135B (family with sequence similarity 135 member B) | -1.05
FAM135B (family with sequence similarity 135 member B) | -1.06
FAM135B (family with sequence similarity 135 member B) | -0.6
GATA5 (GATA binding protein 5) | -1.58 (active)
GATA5 (GATA binding protein 5) | -1.2
GATA5 (GATA binding protein 5) | -1.09
GATA5 (GATA binding protein 5) | -1.23
BPI (bactericidal permeability increasing protein) | -0.52
BPI (bactericidal permeability increasing protein) | -0.03
BPI (bactericidal permeability increasing protein) | -0.57
BPI (bactericidal permeability increasing protein) | -1.12
CIT (citron rho-interacting serine/threonine kinase) | 0.21
CIT (citron rho-interacting serine/threonine kinase) | 0.72
CIT (citron rho-interacting serine/threonine kinase) | -0.01
CIT (citron rho-interacting serine/threonine kinase) | 0.37
H2AC19 (H2A clustered histone 19) | 0.35
H2AC19 (H2A clustered histone 19) | 0.47
H2AC19 (H2A clustered histone 19) | 0.11
H2AC19 (H2A clustered histone 19) | 0.55
